PubChem BioAssay AID1259254, NCATS – 2017
Assay: 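Finding genes that stop cells copying their DNA twice in one cycle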 (primary screen). System: human HCT116 colorectal cancer cells. Reagents: single siRNA against human genes. Timing: 3 days. Measured: 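Imaged Hoechst DNA stain sorts each cell into a cycle phase by DNA amount; per plate, G2 fraction set to 0% for non-targeting and 100% for GMNN siRNA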. Scale: G2 robust z-score and G2 cells, % of GMNN control: higher = more G2 cells, more excess DNA replication. Active means: 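An siRNA counts as active if its G2 robust z-score lies at least 5 MADs above the screen median; here such calls match roughly 38% of GMNN control or more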.
This is one part, drawn at random, of about 59,000 deposited reagents. About 1,550 of them (2.6%) were called active. 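G2 share is only a proxy for re-replication; each gene was hit by three separate siRNAs, and active genes were retested.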 The numbers tell different reagents against one gene apart. Not all columns of the deposit are shown. Reagent sequences are not shown. Not stated in the record: the amount of reagent.

HARS2 (histidyl-tRNA synthetase 2, mitochondrial) #1 | G2 robust z-score = -1.09; G2 cells, % of GMNN control = -4.72; Outcome = inactive
HARS2 (histidyl-tRNA synthetase 2, mitochondrial) #2 | G2 robust z-score = -0.772; G2 cells, % of GMNN control = -2.47; Outcome = inactive
HARS2 (histidyl-tRNA synthetase 2, mitochondrial) #3 | G2 robust z-score = 0.11; G2 cells, % of GMNN control = 3.74; Outcome = inactive
PASK (PAS domain containing serine/threonine kinase) #1 | G2 robust z-score = 1.22; G2 cells, % of GMNN control = 11.6; Outcome = inactive
PASK (PAS domain containing serine/threonine kinase) #2 | G2 robust z-score = 0.0173; G2 cells, % of GMNN control = 3.09; Outcome = inactive
PASK (PAS domain containing serine/threonine kinase) #3 | G2 robust z-score = -0.366; G2 cells, % of GMNN control = 0.393; Outcome = inactive
LLGL2 (LLGL scribble cell polarity complex component 2) #1 | G2 robust z-score = -0.241; G2 cells, % of GMNN control = 1.27; Outcome = inactive
LLGL2 (LLGL scribble cell polarity complex component 2) #2 | G2 robust z-score = -0.878; G2 cells, % of GMNN control = -3.21; Outcome = inactive
LLGL2 (LLGL scribble cell polarity complex component 2) #3 | G2 robust z-score = 1.16; G2 cells, % of GMNN control = 11.1; Outcome = inactive
WASH6P (WASP family homolog 6, pseudogene) #1 | G2 robust z-score = -0.714; G2 cells, % of GMNN control = -2.06; Outcome = inactive
WASH6P (WASP family homolog 6, pseudogene) #2 | G2 robust z-score = -0.579; G2 cells, % of GMNN control = -1.11; Outcome = inactive
WASH6P (WASP family homolog 6, pseudogene) #3 | G2 robust z-score = 3.83; G2 cells, % of GMNN control = 29.9; Outcome = inactive

Entries listed so far whose target name starts with P or p (3):
PASK (PAS domain containing serine/threonine kinase) #1 | G2 robust z-score = 1.22; G2 cells, % of GMNN control = 11.6; Outcome = inactive
PASK (PAS domain containing serine/threonine kinase) #2 | G2 robust z-score = 0.0173; G2 cells, % of GMNN control = 3.09; Outcome = inactive
PASK (PAS domain containing serine/threonine kinase) #3 | G2 robust z-score = -0.366; G2 cells, % of GMNN control = 0.393; Outcome = inactive

The listing continues.
CITED2 (Cbp/p300 interacting transactivator with ED-rich tail 2) #1 | G2 robust z-score = -0.721; G2 cells, % of GMNN control = -2.1; Outcome = inactive
CITED2 (Cbp/p300 interacting transactivator with ED-rich tail 2) #2 | G2 robust z-score = -1.21; G2 cells, % of GMNN control = -5.57; Outcome = inactive
CITED2 (Cbp/p300 interacting transactivator with ED-rich tail 2) #3 | G2 robust z-score = -0.818; G2 cells, % of GMNN control = -2.79; Outcome = inactive
MARCHF11 (membrane associated ring-CH-type finger 11) #1 | G2 robust z-score = 0.191; G2 cells, % of GMNN control = 4.31; Outcome = inactive
MARCHF11 (membrane associated ring-CH-type finger 11) #2 | G2 robust z-score = 6.88; G2 cells, % of GMNN control = 51.4; Outcome = active
MARCHF11 (membrane associated ring-CH-type finger 11) #3 | G2 robust z-score = -0.818; G2 cells, % of GMNN control = -2.79; Outcome = inactive
